Here are results for 6 molecules from paper PMC6525239, “Hexameric NuMA:LGN structures promote multivalent interactions required for planar epithelial divisions” (Nature Communications, 2019).

Assay [1] addresses T1, LGN^1–409 (TPR domain of LGN) (human).
T1 sequence (P81274 whole entry, looked up): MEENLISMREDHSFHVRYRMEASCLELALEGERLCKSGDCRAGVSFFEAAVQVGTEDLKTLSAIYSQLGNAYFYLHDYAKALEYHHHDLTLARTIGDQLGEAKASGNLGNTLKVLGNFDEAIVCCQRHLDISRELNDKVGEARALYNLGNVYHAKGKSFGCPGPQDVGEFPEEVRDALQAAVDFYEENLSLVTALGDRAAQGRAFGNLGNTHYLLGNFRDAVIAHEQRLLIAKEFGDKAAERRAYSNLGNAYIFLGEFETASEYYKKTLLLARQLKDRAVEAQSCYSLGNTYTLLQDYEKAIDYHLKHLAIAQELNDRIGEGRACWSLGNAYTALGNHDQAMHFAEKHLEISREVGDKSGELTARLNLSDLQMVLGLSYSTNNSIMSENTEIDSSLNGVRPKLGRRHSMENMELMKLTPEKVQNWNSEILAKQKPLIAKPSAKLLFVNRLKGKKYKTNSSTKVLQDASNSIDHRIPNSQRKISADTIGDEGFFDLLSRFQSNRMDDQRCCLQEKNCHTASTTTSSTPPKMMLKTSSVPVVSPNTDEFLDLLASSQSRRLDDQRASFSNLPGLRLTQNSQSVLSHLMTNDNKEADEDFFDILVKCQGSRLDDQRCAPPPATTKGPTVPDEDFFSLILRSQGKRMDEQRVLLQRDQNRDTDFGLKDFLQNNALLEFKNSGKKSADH
As to the kind of experiment: SEC-MALS; static light scattering (SLS) on a Viscotek GPCmax/TDA with two TSKgel G3000PWxl columns in series; 75 μl of purified sample at about 1.5–2 mg/ml; both purified. Background: In gel filtration, larger molecules generally elute earlier.

Assay [2] shares this target. As to the kind of experiment: SEC; analytical SEC, Superdex-200 Increase 3.2/300; LGN and NuMA variants mixed in equimolar amounts (20 μM; LGN^TPR:NuMA^PEPT 1:2); 20 mM Tris-HCl pH 8.0, 0.150 M NaCl, 5% glycerol, 1 mM DTT; fractions checked by SDS-PAGE; both purified.
The target of the next assay is T2, LGN^7–367 (human).
T2 sequence (P81274 whole entry, looked up): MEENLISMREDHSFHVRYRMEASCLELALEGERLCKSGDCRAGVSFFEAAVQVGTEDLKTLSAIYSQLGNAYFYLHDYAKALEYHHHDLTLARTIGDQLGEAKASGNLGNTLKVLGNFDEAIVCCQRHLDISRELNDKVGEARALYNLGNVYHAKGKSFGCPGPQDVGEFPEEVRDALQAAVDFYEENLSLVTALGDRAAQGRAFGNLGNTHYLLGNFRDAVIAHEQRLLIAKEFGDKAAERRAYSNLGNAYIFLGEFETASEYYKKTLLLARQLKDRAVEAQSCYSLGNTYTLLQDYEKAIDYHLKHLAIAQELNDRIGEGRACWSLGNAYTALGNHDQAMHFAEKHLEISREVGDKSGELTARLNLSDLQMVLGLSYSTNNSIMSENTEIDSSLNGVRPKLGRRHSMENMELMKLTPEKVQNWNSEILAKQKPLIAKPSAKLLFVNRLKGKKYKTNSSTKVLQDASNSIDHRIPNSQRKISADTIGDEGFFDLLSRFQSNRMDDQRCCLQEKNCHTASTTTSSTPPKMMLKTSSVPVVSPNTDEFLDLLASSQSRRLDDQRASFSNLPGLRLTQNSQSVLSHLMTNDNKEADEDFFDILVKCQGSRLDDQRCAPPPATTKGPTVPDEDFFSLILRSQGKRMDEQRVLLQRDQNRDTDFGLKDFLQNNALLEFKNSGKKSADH
As to the kind of experiment: crystal structure; LGN^7–367:NuMA^LGNBD complex at 14 mg/ml with 20 mM TCEP; 10% PEG3350, 0.05 M Bis-Tris propane pH 7.5, 0.1 M Na-formate or Na-acetate, 20 °C; 4.3 Å, eleven datasets merged; both purified.

For assay [3], the target named is T1, LGN^1–409 (TPR domain of LGN) (human). As to the kind of experiment: SEC; Superose-6 column; LGN^TPR or LGN^TPR-ΔOLIGO combined with NuMA-chimera in a 1:1.2 molar ratio; both purified.
Assay [4] has as its target LGN^TPR-ΔOLIGO (LGN^13–350) (human). The assay is described as above.

No constants are given. Whether binding was seen depends on the method and setting. A result given as binding can be weak or reduced; the word gives no strength.

B1: NuMA^1821–1928 (domain or fragment, UniProt Q14980 1821-1928)
chain: KKLDVEEPDSANSSFYSTRSAPASQASLRATSSTQSLARLGSPDYGNSALLSLPGYRPTTRSSARRSQAGVSSGAPPGRNSFYMGTCQDEPEQLDDWNRIAELQQRNR
Regarding B1, in assay [1], the binding entry is on record as “binds”.

B2: NuMA^LGNBD-Δ1881–1897 (domain or fragment, UniProt Q14980 1861-1880; Q14980 1898-1928)
chain: GSPDYGNSALLSLPGYRPTTTGSGRNSFYMGTCQDEPEQLDDWNRIAELQQRNR
As for B2, in assay [2], the binding entry is “binds”.

B3: NuMA^1877–1928 (domain or fragment, UniProt Q14980 1877-1928)
chain: RPTTRSSARRSQAGVSSGAPPGRNSFYMGTCQDEPEQLDDWNRIAELQQRNR
With B3, the binding entry in assay [2] was “binds”.

B4: NuMA^1821–2001 (domain or fragment, UniProt Q14980 1821-2001)
chain: KKLDVEEPDSANSSFYSTRSAPASQASLRATSSTQSLARLGSPDYGNSALLSLPGYRPTTRSSARRSQAGVSSGAPPGRNSFYMGTCQDEPEQLDDWNRIAELQQRNRVCPPHLKTCYPLESRPSLSLGTITDEEMKTGDPQETLRRASMQPIQIAEGTGITTRQQRKRVSLEPHQGPGTP
Consider B4, for which the binding entry in assay [2] was “binds”.

B5: NuMA^1861–1928 (domain or fragment, UniProt Q14980 1861-1928)
chain: GSPDYGNSALLSLPGYRPTTRSSARRSQAGVSSGAPPGRNSFYMGTCQDEPEQLDDWNRIAELQQRNR
Turning to B5, the binding entry (in the assay with LGN^7–367 (human); in assay [2]) was “binds” in each case.

B6: NuMA chimera (NuMA 1592–1694 joined to NuMA 1821–2001 by eight Thr-Gly-Ser repeats) (domain or fragment, human)
chain: QLNELQAQLSQKEQAAEHYKLQMEKAKTHYDAKKQQNQELQEQLRSLEQLQKENKELRAEAERLGHELQQAGLKTKEAEQTCRHLTAQVRSLEAQVAHADQQLTGSTGSTGSTGSTGSTGSTGSTGSKKLDVEEPDSANSSFYSTRSAPASQASLRATSSTQSLARLGSPDYGNSALLSLPGYRPTTRSSARRSQAGVSSGAPPGRNSFYMGTCQDEPEQLDDWNRIAELQQRNRVCPPHLKTCYPLESRPSLSLGTITDEEMKTGDPQETLRRASMQPIQIAEGTGITTRQQRKRVSLEPHQGPGTP
notes: NuMA, human, residues 1592-1694 (dimerizing coiled-coil); also called chimeric NuMA construct; source: E. coli BL21 Rosetta, purified (Ni HiTrap chelating, PreScission cleavage, Resource-Q, Superose-6)
For B6, the binding entry in assay [3], in assay [4] and in assay [1] was “binds” throughout.
